{
  "source": "PubChem BioAssay AID1508600",
  "about": "(Functional Genomics Laboratory (NCATS/FGL), 2020)",
  "note": "The campaign covered roughly 53,000 sequences. About 3,700 (7%) were called active.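 Rule for the calls: active = gene knockdowns whose robust z-score for IL-1 alpha signal is at least 2 or at most -2, so actives lie on both sides; inactive = the rest.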 Some of the results follow.",
  "data": [
    {"experiment": "Components of the Cytosolic LPS Sensing Pathway: Gene Identification via Genome-wide siRNA Screen;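 note: robust z of the log signal after scaling to non-targeting control siRNA wells of the plate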", "conditions": "RAW264.7 macrophages, IL-1a HTRF, actives lie on both sides, screened at 100 nM (by protocol), cells primed 5 h with Pam3CSK4 first", "outline": "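Cells (RAW264.7, 1×10^4 per well) were transfected with siRNA at 100 nM and cultured 48h at 37 degrees C. Pam3CSK4 was added for 5 hours; LipidA transfection followed for 24 hour. IL-1a was then measured by HTRF.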", "values": [
      {"sequence": "CCUAUACACCCAUUUUUAATT against Arl2bp", "z-score": "inactive: 0.163"},
      {"sequence": "GGGUCUUUAAACUGAAAGATT against Sh3pxd2a", "z-score": "inactive: 0.0777"},
      {"sequence": "GCCAAAUAAUCUGAAAGCCTT against Rpl28", "z-score": "inactive: 0.309"},
      {"sequence": "GGAAGUUUCUCUGAGAGCUTT against Krt86", "z-score": "inactive: -0.0591"},
      {"sequence": "GGAUCAGUGGACAAAAUAUTT against Uqcrb", "z-score": "inactive: -1.62"},
      {"sequence": "CGGUGCUCAUGUUUAACUGTT against Cyb561a3", "z-score": "inactive: -0.559"},
      {"sequence": "GGAAACAGUAGAAGAUGAGTT against Fam220a", "z-score": "inactive: 0.151"},
      {"sequence": "GGAAUGCAUCGAGUGAAAATT against Pgap4", "z-score": "inactive: -0.658"},
      {"sequence": "CCAAGCCUUAAUAAGUCAATT against Ccp110", "z-score": "active: -2.52"},
      {"sequence": "GGCAUUUCGUGGAUCACCGTT against Mtg2", "z-score": "inactive: -1.56"},
      {"sequence": "GGAAGCUCUUCAACUCUACTT against Vps4b", "z-score": "active: 2.06"},
      {"sequence": "UUCUGUGCAUCCUGUCCUATT against Kcnk15", "z-score": "inactive: 0.554"},
      {"sequence": "CCCAUUGGAACUGCUGUAATT against Metrnl", "z-score": "inactive: 0.932"},
      {"sequence": "GGUAUUGAAAAAGCUUUUCTT against Rragc", "z-score": "inactive: 1.29"},
      {"sequence": "GCAUUCUCAAGAGAUGCCCTT against Alk", "z-score": "inactive: -1.19"},
      {"sequence": "GGACUAGUUGUGACUUAAGTT against Aldh1a1", "z-score": "inactive: -0.495"},
      {"sequence": "GCAGUAGGUUGCACACAUATT against Art1", "z-score": "active: -2.11"},
      {"sequence": "CCUGUCGUUCCCUUAAAUATT against Asnsd1", "z-score": "inactive: 0.315"},
      {"sequence": "GGUUGUCUGACACUGUACATT against Nabp2", "z-score": "inactive: 0.815"},
      {"sequence": "GGCUCCUGGGCAAUAUGAUTT against Hbb-b1", "z-score": "inactive: 0.33"},
      {"sequence": "CGCCAGAUGGACUUCAUCATT against Slc6a8", "z-score": "inactive: 1.83"},
      {"sequence": "GCCGCUAUCGUCUUUAUCATT against Ptk7", "z-score": "inactive: 0.00632"},
      {"sequence": "GGAACUUAUCCGGUUUGAUTT against Limk1", "z-score": "inactive: 1.58"},
      {"sequence": "GGAAUAUUGCUAAACACAATT against 1700025G04Rik", "z-score": "inactive: 1.29"},
      {"sequence": "GCUCCAAUGUGGUUGAGCATT against Olfr531", "z-score": "inactive: -1.04"},
      {"sequence": "CGAUGUAAAGAGCUGGUAGTT against Zdhhc13", "z-score": "inactive: 0.802"},
      {"sequence": "GCUGUUGUUUACUUGGCAATT against Vmn1r197", "z-score": "inactive: -0.0655"},
      {"sequence": "GGGACAUUUUCUUUCUAUUTT against Diaph3", "z-score": "inactive: 1.75"},
      {"sequence": "GGAUGUGGUCUCUAUACCGTT against 1600012H06Rik", "z-score": "inactive: -1.55"},
      {"sequence": "GGAUUCGGGAAGGUGAGAUTT against Cep250", "z-score": "inactive: -0.712"},
      {"sequence": "GCUCAAGGCGACCUGUAUGTT against Map3k1", "z-score": "inactive: -1.05"},
      {"sequence": "CCAAAAAGUUCAGUGUAAUTT against Rad9b", "z-score": "inactive: -1.09"},
      {"sequence": "GUGUGGUACUCAACCCACUTT against Ffar1", "z-score": "inactive: 1.01"},
      {"sequence": "GGAGAUGGGCAAAGAGAUCTT against Cdk2ap2", "z-score": "inactive: 0.111"},
      {"sequence": "CCAGGUCGAACAUUUAAACTT against Ifit3", "z-score": "inactive: 1.71"},
      {"sequence": "GCUAGUCAUUUACAGAUCATT against Spesp1", "z-score": "inactive: -0.42"},
      {"sequence": "GGACUACGGCAAAGAUGAGTT against Mrc2", "z-score": "inactive: -1.56"},
      {"sequence": "GUUUACACUUUCAGGAAUATT against Olfr1218", "z-score": "inactive: 1.16"},
      {"sequence": "GGCCAAAGAGUUCAGCCUATT against Prrx2", "z-score": "inactive: -0.29"},
      {"sequence": "GGAAGUGGUGAUGUAAAUATT against Tpp2", "z-score": "inactive: -0.994"},
      {"sequence": "AUGUGAUAGUGCCCAGCCUTT against Olfr884", "z-score": "inactive: 0.433"},
      {"sequence": "GGAUACAUCCUUGCUGAAATT against Dapk1", "z-score": "inactive: 0.00847"},
      {"sequence": "CGAUGCAACAUGACCAAGUTT against Gm5800", "z-score": "inactive: 1.28"},
      {"sequence": "GGCUUGCAUCAAUAAAGAATT against Adam33", "z-score": "inactive: 0.0554"},
      {"sequence": "GCAAUGGAAAAAUCCAGUUTT against Spink7", "z-score": "inactive: 0.581"},
      {"sequence": "GGUUUGAGGUAACACUAGATT against Vps39", "z-score": "inactive: -0.125"},
      {"sequence": "GCUACAGUCUCUUUUAGCATT against Dync1li1", "z-score": "inactive: 0.511"},
      {"sequence": "GGGUAUAGCCAGUACCAACTT against Thoc7", "z-score": "inactive: -0.557"},
      {"sequence": "GGAACAAAUAAAGGUAAACTT against Tgs1", "z-score": "inactive: -0.0146"},
      {"sequence": "GCCAUUAUUGGAGCUGGCATT against Olfr105-ps", "z-score": "inactive: 0.12"},
      {"sequence": "GCUAACACAACGAGAGAAGTT against Ushbp1", "z-score": "active: -2.39"},
      {"sequence": "CGGAAAACGAAUAAACUACTT against Gria2", "z-score": "inactive: 1.35"},
      {"sequence": "GGAAGAGAUGAACUCUCAGTT against Sf3b2", "z-score": "inactive: 0.0943"}
    ]}
  ]
}
